# Laboratory results: publication doi:10.1101/2020.03.05.978999
# Sequences of proteins named here, by UniProt entry; tags and fusion partners are left off.
# UniProt P55852: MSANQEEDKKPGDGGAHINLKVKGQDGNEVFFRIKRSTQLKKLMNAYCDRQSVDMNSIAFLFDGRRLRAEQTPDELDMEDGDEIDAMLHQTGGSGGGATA
# These are yes or no findings as the source states them, for the method shown. In cells and extracts the contact can be indirect. Some results given as binding are weak or reduced against the parent protein; the word gives no strength. Where a sequence is shown, tags or fusion partners need not be part of it.
# Tests used:
# Assay in all cases: split reporter
# [1] = molecular target: T1, ROS1-nLUC (Arabidopsis thaliana) (UniProt Q9SJQ6)
# T1 sequence: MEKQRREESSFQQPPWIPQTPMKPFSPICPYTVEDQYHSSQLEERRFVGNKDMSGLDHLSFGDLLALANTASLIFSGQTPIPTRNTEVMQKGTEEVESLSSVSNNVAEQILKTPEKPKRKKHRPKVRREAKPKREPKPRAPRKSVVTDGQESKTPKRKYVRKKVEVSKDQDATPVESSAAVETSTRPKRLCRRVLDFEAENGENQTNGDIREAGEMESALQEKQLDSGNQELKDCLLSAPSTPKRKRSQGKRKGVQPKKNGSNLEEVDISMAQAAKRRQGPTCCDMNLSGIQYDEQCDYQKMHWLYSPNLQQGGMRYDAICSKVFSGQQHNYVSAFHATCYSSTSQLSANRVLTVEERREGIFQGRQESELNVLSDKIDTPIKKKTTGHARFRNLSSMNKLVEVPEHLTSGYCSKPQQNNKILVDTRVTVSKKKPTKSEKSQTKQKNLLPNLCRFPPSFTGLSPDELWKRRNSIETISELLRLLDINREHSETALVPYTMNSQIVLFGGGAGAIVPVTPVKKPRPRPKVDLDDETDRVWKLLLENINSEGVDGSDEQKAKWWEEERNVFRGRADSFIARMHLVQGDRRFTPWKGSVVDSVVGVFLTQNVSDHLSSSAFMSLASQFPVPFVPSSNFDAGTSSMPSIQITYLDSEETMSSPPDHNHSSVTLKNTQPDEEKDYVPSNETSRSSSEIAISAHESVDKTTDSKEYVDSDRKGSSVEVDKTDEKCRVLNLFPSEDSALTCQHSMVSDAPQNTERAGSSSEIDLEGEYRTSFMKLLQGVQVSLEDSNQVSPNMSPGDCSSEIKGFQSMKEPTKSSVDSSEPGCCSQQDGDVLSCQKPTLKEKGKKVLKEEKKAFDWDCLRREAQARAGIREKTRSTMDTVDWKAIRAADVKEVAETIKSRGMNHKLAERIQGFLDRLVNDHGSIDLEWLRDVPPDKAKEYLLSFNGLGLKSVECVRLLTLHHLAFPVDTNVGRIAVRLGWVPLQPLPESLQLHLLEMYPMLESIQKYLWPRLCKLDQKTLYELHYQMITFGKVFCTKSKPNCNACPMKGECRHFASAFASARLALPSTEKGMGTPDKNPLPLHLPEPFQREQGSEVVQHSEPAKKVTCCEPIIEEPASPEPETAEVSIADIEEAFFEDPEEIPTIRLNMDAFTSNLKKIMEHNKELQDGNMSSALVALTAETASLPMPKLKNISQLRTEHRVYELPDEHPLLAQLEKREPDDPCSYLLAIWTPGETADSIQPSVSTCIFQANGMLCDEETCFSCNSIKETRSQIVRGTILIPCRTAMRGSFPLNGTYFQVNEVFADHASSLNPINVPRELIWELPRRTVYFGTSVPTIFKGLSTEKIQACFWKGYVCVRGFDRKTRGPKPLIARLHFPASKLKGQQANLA
# [2] = molecular target: T2, ROS1b-nLUC (510-1393 aa) (Arabidopsis thaliana) (UniProt Q9SJQ6)
# T2 sequence: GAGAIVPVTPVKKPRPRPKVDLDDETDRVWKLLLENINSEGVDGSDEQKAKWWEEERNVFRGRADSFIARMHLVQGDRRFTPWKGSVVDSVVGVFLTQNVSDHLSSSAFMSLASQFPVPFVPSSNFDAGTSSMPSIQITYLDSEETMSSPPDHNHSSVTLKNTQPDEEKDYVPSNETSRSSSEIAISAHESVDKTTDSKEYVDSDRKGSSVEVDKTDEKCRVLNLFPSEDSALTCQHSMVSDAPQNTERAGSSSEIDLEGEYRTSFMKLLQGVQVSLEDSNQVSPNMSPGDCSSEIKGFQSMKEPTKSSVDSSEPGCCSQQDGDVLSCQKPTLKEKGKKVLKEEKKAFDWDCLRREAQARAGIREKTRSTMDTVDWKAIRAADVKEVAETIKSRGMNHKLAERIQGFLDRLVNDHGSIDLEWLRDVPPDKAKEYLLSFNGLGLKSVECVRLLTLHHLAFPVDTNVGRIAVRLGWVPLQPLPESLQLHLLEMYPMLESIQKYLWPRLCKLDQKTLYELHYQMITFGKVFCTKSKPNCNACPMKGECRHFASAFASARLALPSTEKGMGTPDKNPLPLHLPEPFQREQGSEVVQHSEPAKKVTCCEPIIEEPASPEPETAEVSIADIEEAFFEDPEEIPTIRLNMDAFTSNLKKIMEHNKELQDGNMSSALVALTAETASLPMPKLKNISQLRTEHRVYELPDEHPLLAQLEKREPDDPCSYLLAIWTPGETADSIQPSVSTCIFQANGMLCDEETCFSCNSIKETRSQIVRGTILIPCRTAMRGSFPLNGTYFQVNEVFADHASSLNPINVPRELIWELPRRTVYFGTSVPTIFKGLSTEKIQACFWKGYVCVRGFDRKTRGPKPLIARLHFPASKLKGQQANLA
# [3] = molecular target: T3, ROS1a-nLUC (1-509 aa) (Arabidopsis thaliana) (UniProt Q9SJQ6)
# T3 sequence: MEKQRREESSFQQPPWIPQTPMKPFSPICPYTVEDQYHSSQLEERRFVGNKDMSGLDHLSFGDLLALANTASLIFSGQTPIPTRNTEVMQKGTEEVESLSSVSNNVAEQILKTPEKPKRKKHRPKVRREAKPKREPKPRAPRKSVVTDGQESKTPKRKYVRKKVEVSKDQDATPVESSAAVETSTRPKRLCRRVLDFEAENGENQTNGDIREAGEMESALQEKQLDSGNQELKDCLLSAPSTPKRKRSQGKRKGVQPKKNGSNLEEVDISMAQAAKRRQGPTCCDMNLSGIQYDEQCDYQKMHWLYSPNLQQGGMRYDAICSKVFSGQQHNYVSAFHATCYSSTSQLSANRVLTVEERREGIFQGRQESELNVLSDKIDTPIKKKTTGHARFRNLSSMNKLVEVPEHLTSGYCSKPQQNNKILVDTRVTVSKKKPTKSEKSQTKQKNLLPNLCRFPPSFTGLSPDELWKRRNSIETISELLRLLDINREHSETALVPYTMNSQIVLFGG
substance,measurement,setting,value
cLUC-SUMO1 (from UniProt P55852 1-100),binding,[1],binds
same,binding,[2],binds
same,binding,[3],no binding
